Results are given in words; binding and its absence hold for the method and conditions named. In cells and extracts the contact can be indirect. Some entries that bind do so weakly or less than the wild type. Sequences can lack the tags named with a protein.
T1: GFP-SMAD4, Q13485
T1 chain: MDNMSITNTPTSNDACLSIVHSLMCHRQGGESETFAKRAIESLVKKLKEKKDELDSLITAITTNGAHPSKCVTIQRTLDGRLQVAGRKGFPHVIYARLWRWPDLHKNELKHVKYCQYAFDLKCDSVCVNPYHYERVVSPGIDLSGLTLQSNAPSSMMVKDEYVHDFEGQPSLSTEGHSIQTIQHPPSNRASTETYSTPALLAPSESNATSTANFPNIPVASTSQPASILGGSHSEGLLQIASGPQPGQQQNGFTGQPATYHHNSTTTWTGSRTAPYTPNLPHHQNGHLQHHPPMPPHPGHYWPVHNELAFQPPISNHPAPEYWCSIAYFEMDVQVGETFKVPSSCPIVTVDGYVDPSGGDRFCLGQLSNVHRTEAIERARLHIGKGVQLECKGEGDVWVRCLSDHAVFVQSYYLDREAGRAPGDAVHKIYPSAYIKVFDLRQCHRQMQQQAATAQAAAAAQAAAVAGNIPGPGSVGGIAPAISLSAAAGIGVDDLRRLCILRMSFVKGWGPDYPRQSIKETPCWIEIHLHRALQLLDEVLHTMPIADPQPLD


Molecular target: T1, GFP-SMAD4, Q13485
Assay: co-IP; GFP immunoprecipitation from lysates of U2OS cells stably expressing GFP-SMAD4; cells incubated with DMSO, SB-505124 or MRT199665, with or without TGFβ1; immunoblotting of the precipitates
Details: remark: other sources report otherwise

Binder	binding
SMAD2, Q15796 1-467 (protein) MSSILPFTPPVVKRLLGWKKSAGGSGGAGGGEQNGQEEKWCEKAVKSLVKKLKKTGRLDELEKAITTQNCNTKCVTIPSTCSEIWGLSTPNTIDQWDTTGLYSFSEQTRSLDGRLQVSHRKGLPHVIYCRLWRWPDLHSHHELKAIENCEYAFNLKKDEVCVNPYHYQRVETPVLPPVLVPRHTEILTELPPLDDYTHSIPENTNFPAGIEPQSNYIPETPPPGYISEDGETSDQQLNQSMDTGSPAELSPTTLSPVNHSLDLQPVTYSEPAFWCSIAYYELNQRVGETFHASQPSLTVDGFTDPSNSERFCLGLLSNVNRNATVEMTRRHIGRGVRLYYIGGEVFAECLSDSAIFVQSPNCNQRYGWHPATVCKIPPGCNLKIFNNQEFAALLAQSVNQGFEAVYQLTRMCTIRMSFVKGWGAEYRRQTVTSTPCWIELHLNGPLQWLDKVLTQMGSPSVRCSSMS	binds
SMAD3, P84022 1-425 (protein) MSSILPFTPPIVKRLLGWKKGEQNGQEEKWCEKAVKSLVKKLKKTGQLDELEKAITTQNVNTKCITIPRSLDGRLQVSHRKGLPHVIYCRLWRWPDLHSHHELRAMELCEFAFNMKKDEVCVNPYHYQRVETPVLPPVLVPRHTEIPAEFPPLDDYSHSIPENTNFPAGIEPQSNIPETPPPGYLSEDGETSDHQMNHSMDAGSPNLSPNPMSPAHNNLDLQPVTYCEPAFWCSISYYELNQRVGETFHASQPSMTVDGFTDPSNSERFCLGLLSNVNRNAAVELTRRHIGRGVRLYYIGGEVFAECLSDSAIFVQSPNCNQRYGWHPATVCKIPPGCNLKIFNNQEFAALLAQSVNQGFEAVYQLTRMCTIRMSFVKGWGAEYRRQTVTSTPCWIELHLNGPLQWLDKVLTQMGSPSIRCSSVS	binds

From publication PMC6976658
